Experimental data published in patent US20090176711A1, “INHIBITORS OF AMYLOID PRECURSOR PROTEIN PROCESSING” (priority 2008, published 2009).
Some results were stated once for a whole list of compounds, not compound by compound.

Amino acid sequences for entries named in this document (tags omitted). A change or cut given only in a name is not applied to a line headed by its entry.
UniProt P05067: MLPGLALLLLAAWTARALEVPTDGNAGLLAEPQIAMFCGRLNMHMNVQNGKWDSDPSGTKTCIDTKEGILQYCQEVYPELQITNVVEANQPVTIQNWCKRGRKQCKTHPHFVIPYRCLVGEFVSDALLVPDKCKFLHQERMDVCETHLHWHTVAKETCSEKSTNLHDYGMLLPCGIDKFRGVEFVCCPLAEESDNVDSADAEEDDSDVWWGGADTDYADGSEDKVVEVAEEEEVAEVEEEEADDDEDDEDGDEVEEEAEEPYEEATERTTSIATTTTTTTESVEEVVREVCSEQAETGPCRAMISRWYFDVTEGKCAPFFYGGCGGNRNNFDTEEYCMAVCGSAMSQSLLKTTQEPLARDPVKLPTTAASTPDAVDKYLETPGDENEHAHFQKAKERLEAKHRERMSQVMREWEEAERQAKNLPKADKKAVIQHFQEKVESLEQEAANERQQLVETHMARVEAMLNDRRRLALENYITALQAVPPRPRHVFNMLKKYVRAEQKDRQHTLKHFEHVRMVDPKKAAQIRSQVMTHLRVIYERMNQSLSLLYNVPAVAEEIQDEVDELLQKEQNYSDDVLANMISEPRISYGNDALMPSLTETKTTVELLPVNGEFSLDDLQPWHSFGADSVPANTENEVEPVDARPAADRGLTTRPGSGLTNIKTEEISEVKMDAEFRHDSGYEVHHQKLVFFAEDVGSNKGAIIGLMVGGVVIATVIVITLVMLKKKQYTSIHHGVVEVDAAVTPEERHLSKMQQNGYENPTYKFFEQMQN

Target: T1, Substrate W (Sub W, SEVKMDAEFR; β-secretase cleavage site of wild type APP) (Homo sapiens, UniProt P05067)
T1 construct: […]; purchased Peptron, Inc; host or cells: chemical synthesis
Assay: Binding of biotin-labeled Substrate W to immobilized complementary (HC) peptides
Details: HC peptides chemically coupled, bio-Sub W
Procedure: Complementary peptides (0.2, 2, 20, and 200 μM) were dissolved in phosphate buffered saline (PBS) (pH 7.4) and fixed to microtiter wells for 5 hr at 37° C. The wells were blocked with blocking buffer (3% BSA/PBS) for 1 hr at 37° C. Either N-terminally biotinylated Substrate W or M (20 μM) in blocking buffer was added and incubated for overnight at 4° C. Streptavidin-horseradish peroxidase in blocking buffer was added to detect resulting bound substrates. The plate was incubated for 2 hr at room temperature (RT), followed by addition of 3,3′,5,5′-tetramethyl-benzidine (TMB) as substrate for horseradish peroxidase for color reaction. […]
Reacti-Bind™ maleic anhydride-activated polystyrene plate (Pierce, IL, USA) was coated with 50 μl of HC peptide (200 μM in distilled water) by chemical coupling for 3 h at room temperature (RT) and washed three times with phosphate buffered saline (PBS) containing 0.05% tween 20 (PBST). […] The bound biotinylated BACE1 substrates were detected by incubation with streptavidin-horseradish peroxidase (Str-HRP, 125 mU/ml in blocking buffer) for 2 h at RT. […] After stopping the reaction by addition of an equal volume of 1 N HCl, absorbance at 450 nm was read in an automated ELISA reader (EL 312e, Bio-Tek Instruments, VT, USA). […]

| Sequence | binding to Sub W compared to c-Sub W |
| --- | --- |
| RLHFYLRLKA [Sub W-c] | less than 10% |
| RLHLDLRLKA [Sub M-c] | less than 10% |
